Reference: publication doi:10.1101/362988
No constants are given. Whether binding was seen depends on the method and setting. Binding seen in cells or lysates may run through a third protein. Here binding means that the protein was enriched with, or labelled near, the bait; the list need not be complete. One block for each molecule: values may come before it.

By UniProt entry, the sequences of proteins in these tests, tags left out. Where a name states a change or a piece, a line headed by the entry shows the natural chain unless it says otherwise.
UniProt Q8K4B0: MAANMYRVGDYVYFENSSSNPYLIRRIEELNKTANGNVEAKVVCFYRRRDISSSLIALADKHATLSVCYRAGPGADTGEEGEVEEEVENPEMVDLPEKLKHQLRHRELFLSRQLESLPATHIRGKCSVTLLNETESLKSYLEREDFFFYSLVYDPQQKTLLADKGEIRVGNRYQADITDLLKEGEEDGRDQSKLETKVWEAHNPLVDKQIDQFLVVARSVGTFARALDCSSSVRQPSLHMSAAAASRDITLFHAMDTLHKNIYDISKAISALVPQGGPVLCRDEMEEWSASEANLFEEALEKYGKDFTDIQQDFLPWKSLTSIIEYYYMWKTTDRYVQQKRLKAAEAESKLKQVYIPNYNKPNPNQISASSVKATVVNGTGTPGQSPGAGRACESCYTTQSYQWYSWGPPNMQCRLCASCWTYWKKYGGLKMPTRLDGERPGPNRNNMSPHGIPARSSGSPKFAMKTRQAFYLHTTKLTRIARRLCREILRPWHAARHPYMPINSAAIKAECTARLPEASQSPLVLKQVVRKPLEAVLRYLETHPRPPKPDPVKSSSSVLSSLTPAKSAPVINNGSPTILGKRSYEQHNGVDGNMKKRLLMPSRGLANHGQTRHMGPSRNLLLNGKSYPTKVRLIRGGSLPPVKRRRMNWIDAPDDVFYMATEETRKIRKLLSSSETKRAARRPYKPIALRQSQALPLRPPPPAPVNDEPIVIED
UniProt Q9R190: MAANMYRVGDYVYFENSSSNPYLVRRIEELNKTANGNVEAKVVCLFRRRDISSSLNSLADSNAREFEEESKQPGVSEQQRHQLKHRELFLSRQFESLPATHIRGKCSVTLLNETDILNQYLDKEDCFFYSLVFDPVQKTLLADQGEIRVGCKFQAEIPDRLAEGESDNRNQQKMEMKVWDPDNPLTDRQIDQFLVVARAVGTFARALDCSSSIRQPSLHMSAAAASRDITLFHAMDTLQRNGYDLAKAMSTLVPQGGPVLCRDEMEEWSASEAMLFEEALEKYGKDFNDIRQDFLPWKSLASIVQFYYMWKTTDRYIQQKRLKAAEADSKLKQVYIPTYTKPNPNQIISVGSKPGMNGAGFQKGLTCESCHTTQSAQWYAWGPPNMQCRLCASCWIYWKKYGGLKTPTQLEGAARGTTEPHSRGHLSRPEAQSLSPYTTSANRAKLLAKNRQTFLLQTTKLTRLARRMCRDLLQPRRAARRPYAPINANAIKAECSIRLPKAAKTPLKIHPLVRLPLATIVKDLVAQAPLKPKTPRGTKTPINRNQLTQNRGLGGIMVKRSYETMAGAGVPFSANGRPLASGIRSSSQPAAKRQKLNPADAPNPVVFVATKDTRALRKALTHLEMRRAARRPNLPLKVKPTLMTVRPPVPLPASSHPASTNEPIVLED
UniProt Q924K8: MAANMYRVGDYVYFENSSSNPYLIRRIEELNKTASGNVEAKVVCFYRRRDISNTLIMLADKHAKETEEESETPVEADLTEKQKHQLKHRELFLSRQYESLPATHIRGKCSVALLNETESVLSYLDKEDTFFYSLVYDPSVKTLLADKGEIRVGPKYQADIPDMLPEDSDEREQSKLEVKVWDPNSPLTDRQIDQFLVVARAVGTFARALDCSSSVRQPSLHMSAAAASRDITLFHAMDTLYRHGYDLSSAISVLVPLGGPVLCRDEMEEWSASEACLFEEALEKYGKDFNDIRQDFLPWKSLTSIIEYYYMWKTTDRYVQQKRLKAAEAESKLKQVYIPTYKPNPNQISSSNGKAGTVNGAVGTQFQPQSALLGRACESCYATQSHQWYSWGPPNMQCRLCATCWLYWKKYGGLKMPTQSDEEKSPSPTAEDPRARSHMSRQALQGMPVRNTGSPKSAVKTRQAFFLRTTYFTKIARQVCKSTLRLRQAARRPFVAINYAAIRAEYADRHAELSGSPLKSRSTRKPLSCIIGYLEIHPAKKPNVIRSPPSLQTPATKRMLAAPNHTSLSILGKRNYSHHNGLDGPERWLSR
UniProt Q6PDQ2: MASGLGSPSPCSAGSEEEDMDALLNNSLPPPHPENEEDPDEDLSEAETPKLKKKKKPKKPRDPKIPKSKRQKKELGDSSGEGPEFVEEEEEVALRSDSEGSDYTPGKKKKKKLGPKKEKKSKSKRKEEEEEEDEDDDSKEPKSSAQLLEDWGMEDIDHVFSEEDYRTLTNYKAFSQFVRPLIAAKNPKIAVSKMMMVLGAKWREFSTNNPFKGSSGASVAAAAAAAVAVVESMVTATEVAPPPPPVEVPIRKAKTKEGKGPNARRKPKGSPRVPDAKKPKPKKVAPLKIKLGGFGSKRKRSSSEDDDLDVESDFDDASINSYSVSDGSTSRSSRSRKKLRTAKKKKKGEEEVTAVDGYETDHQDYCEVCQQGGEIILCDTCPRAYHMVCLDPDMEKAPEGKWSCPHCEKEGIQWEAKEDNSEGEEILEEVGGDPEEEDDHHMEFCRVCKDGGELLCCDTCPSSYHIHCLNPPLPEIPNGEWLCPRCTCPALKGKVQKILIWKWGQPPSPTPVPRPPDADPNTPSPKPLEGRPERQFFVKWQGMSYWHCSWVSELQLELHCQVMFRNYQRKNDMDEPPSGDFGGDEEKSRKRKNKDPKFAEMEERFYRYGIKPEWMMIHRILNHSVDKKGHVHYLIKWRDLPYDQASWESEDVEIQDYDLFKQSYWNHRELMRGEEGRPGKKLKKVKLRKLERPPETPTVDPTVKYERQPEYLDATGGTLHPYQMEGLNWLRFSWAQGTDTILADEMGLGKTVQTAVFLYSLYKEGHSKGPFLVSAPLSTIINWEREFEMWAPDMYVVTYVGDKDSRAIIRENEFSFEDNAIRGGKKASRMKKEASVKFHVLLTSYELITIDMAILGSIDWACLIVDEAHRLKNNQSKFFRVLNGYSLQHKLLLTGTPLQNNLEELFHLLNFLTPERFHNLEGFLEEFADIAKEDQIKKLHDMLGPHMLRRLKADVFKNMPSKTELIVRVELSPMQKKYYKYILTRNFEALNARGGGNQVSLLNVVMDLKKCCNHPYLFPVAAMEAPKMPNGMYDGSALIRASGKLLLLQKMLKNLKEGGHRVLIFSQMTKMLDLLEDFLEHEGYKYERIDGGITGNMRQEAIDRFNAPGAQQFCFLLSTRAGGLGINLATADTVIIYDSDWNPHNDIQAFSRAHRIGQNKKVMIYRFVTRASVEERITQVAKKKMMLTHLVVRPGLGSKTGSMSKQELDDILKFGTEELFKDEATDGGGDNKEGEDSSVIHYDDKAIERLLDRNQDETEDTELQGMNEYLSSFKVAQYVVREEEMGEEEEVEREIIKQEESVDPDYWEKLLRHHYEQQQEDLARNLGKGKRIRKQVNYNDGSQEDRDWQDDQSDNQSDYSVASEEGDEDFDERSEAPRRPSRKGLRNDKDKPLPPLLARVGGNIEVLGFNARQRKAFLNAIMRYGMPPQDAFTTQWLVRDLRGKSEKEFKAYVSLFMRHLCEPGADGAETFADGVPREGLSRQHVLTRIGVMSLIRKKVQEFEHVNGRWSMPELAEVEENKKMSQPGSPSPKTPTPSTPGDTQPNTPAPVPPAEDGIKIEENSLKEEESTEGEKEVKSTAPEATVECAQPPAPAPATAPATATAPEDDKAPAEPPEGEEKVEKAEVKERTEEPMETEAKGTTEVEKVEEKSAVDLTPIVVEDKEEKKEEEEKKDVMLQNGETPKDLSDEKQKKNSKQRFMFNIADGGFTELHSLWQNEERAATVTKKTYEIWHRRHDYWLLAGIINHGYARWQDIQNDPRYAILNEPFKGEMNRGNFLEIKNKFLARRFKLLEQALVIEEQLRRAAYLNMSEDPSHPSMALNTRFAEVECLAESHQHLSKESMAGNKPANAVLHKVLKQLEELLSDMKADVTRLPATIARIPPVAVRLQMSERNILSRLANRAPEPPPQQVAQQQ
UniProt O09106: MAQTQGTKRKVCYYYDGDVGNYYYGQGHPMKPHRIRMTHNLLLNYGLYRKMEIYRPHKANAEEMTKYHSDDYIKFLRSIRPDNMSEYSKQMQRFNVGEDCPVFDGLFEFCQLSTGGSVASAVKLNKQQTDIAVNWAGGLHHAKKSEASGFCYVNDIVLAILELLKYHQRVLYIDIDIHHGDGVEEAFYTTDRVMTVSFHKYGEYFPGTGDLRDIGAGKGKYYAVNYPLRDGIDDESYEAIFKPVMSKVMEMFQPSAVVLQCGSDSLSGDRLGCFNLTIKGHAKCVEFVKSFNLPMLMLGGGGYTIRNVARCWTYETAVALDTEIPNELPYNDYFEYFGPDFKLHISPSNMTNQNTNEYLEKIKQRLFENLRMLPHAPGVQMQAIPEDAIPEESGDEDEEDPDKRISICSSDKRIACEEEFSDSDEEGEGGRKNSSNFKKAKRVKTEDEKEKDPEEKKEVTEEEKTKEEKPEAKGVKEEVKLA
UniProt E9Q6W4: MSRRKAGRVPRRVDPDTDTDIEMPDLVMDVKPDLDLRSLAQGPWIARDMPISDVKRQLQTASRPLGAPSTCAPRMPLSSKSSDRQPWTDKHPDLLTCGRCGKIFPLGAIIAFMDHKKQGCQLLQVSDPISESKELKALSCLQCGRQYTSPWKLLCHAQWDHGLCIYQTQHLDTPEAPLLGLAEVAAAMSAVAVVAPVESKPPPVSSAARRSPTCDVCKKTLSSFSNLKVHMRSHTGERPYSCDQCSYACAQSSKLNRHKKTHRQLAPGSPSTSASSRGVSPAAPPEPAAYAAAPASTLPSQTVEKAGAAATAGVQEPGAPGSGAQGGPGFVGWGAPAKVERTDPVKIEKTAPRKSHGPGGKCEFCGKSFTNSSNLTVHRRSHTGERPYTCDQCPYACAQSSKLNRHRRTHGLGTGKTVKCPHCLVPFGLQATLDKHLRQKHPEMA
UniProt Q8VHR5: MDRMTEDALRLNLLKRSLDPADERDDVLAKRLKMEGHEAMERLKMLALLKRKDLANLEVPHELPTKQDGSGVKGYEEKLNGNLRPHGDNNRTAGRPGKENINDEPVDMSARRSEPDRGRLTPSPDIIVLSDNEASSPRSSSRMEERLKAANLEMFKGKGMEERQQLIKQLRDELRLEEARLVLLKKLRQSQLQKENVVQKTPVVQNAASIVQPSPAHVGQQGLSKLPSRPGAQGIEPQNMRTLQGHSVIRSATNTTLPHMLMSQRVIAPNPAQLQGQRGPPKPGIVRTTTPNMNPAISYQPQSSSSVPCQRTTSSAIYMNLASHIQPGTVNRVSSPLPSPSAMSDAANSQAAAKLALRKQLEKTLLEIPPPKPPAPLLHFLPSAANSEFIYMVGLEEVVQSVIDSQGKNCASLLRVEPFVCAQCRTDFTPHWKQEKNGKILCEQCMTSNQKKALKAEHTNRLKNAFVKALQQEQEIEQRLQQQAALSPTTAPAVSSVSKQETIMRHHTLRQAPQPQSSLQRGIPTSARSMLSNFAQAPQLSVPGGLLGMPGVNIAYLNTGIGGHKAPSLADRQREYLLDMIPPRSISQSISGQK
UniProt P70288: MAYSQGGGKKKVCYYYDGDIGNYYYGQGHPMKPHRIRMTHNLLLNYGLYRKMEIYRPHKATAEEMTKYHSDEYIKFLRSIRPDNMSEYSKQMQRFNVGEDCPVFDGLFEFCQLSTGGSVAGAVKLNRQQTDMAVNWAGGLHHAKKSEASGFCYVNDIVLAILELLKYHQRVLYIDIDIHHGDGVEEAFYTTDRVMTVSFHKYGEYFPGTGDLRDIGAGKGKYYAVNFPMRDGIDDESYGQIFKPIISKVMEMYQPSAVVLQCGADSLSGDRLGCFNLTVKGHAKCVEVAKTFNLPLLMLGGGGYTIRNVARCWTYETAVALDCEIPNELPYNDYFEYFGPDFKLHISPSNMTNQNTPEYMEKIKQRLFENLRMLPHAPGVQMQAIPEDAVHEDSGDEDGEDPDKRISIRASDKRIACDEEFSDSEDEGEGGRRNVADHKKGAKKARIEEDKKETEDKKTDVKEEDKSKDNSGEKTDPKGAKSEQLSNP
UniProt Q9Z2E1: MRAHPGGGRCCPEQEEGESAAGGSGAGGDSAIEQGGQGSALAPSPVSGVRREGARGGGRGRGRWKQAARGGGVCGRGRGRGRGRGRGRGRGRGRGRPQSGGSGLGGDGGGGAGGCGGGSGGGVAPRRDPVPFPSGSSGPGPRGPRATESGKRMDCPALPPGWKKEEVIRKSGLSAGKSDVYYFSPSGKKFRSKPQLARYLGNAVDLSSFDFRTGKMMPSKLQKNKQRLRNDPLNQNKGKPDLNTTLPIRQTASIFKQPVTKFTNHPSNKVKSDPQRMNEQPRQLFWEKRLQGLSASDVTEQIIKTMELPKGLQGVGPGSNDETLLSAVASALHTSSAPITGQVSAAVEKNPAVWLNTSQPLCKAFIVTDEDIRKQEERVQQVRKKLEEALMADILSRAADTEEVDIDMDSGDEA

How the values were obtained:
Assay in all cases: affinity purification with mass spectrometry
[1] = target: Mta1-Avi-3xFLAG (mouse (endogenous in ES cells)) (UniProt Q8K4B0)
[2] = target: Mta2-GFP (mouse (endogenous in ES cells)) (UniProt Q9R190)
[3] = target: Mta3-Avi-3xFLAG (mouse (endogenous in ES cells)) (UniProt Q924K8)

binding [1]: binds | binding [2]: binds | binding [3]: binds
Molecule: Chd4 (from UniProt Q6PDQ2 1-1915)

binding [1]: binds | binding [3]: binds
Molecule: Gatad2a (from UniProt Q8CHY6 1-629)

binding [1]: binds | binding [2]: binds | binding [3]: binds
Molecule: Hdac1 (from UniProt O09106 1-482)

binding [2]: binds | binding [3]: binds
Molecule: Mta1 (from UniProt Q8K4B0 1-715)

binding [1]: binds | binding [2]: binds | binding [3]: binds
Molecule: Zfp296 (from UniProt E9Q6W4)

binding [2]: binds
B3: Zfp219 (protein, UniProt Q6IQX8 1-726)
chain: MEGSRPRILVGHLEPSPPAFDGELDLQRYSNGPGVSGTPGPGSPGMGAVGWSETRAGERRFPCPVCGKRFRFNSILALHLRAHPGAQAFQCPHCGHRAAQRALLRSHLRTHQPERPRSPAARLLLELEERALLREARLGRARSSGGMQSSPAAEGLARPQVPSSSAFRCPFCKGKFRTSAERERHLHILHRPWKCSLCSFGSSQEEELLHHSLTAHGASERPLAATSTPEPPPPPQQEPRSALEPEPEPEPRPEPDREANPAPTPAPPEEPPAPPEFRCQVCGQSFTQSWFLKGHMRKHKASFDHACPVCGRCFKEPWFLKNHMKVHTSKLGPLRAPGPGSAPARAPQPPDLSLLAYEPLGPALLLAPAPAPAERREPPSLLGYLSVRAGEVRPNGEGADPGGGRSYGGFRPLPSALPNRARRHRTEEPEEEEEVVEAEEESWARGRSLGSLTSLHPNPGEGSGQPAPAAGTQARSTATQEENGLLVGGTRSEAGRGATGKDCPFCGKSFRSAHHLKVHLRVHTGERPYKCPHCDYAGTQSGSLKYHLQRHHREQRSSAGPGPPPEPPPPSQRGSLQPQSGAKPTQASATWVEGTASTRPPSSSTGPGSRRKPASPGRTLRNGRGGEAEPLDLSLRAGPGGEAGAGGALHRCLFCPFATGAPELMALHLQVHHSRRARGRRQPRADTSPTYVRAPSGETPPSPPLEEEGSPGLSRSGEAGLGGQER

The remaining lines, values behind:

Molecule: Gatad2b (from UniProt Q8VHR5 1-594)
binding [1]: binds | binding [2]: binds

Molecule: Hdac2 (from UniProt P70288 1-488)
binding [1]: binds | binding [2]: binds | binding [3]: binds

Molecule: Mbd2 (from UniProt Q9Z2E1 1-414)
binding [1]: binds | binding [2]: binds | binding [3]: binds

Molecule: Mta2 (from UniProt Q9R190 1-668)
binding [1]: binds | binding [3]: binds

Molecule: Mta3 (from UniProt Q924K8 1-591)
binding [1]: binds | binding [2]: binds

Molecule: Zfp512b (from UniProt B7ZCR6)
binding [2]: binds

B1: Cdk2ap1 (protein, UniProt O35207 1-114)
chain: MSYKPNLTAHMPAAALNAGSVHSPSTSMATSSQYRQLLSDYGPPSLGYTQGTGNSQVPQSKYAELLAIIEELGKEIRPTYAGSKSAMERLKRGIIHARSLVRECLAETERNARS
binding [1]: binds | binding [2]: binds | binding [3]: binds

B2: Pwwp2a (protein, UniProt Q69Z61 1-730)
chain: MAAVAAEAAATAASPGEGGAGEAEPELEPIPGSEAGTPLPVTATEAAVPDGEADGRQSAPQADEQPLPPPPPPPPPGELADSSEAEEAKPPEPAAVPVSPPEQPPAAPEQPEDAPRPPPAPALVPPAGGDSAVSHLIPGSEVRVTLDHIIEDALVVSFRLGEKLFSGVLMDLSKRFGPHGIPVTVFPKREYKDKPDAMQLQSTTFQEGIEVKQEVNGAVPDDLSPVPPPERLWASKPPPLFHEGAPYPPPLFIRDTYNQSIPQPPPRKIKRPKRKMYREEPTSIMNAIKLRPRQVLCDKCKNSVVAEKKEIRKGSSDSSRYEDKKRRNDSVATVNKKLKTDHKVDGKNQNESQRRNTVVRVSSIAHSRGRVVKVSAQANTSKAQLNTKKVLQSKNMDHAKAREVLKIAKEKAQKKQSETSTSKTAHAKVHFTRRYQSPSSGSLPPRVRLKPQRYRNEENDSSLKTGLEKIRSGKLAPKPQSRCTSTRSAGEAPSEKPSPSEGPEESAGEVQDTSRVRVPGEQEELRMLGKKGSKSSISVYLTLNQETSDSSSASVCSIDSMDDLKSSNSECSSSESFVFPPGCMHAPSASSTSTSFSSKEENSLRNSLKMKIFSKNVSKCITPDGRTICVGDIVWAKIYGFPWWPARILTITVSRKDNGLLARQEARISWFASPTTSSLALSQLSPFLENFQLRFNKKRKGLYRRAITEAAKAAKQLTPEVRALLTQFET
binding [1]: binds
